# Test results from PubChem BioAssay AID504444 (National Center for Advancing Translational Sciences (NCATS), 2011).
# The whole screen tested about 360,000 compounds, of which about 7,500 (2.1%) were called active. The inconclusive results got no clear call from the source; some entries with a clear call stand among them for comparison. Calls follow the shape of the dose curve; as a rule, active = well fitted inhibition curve with a large enough effect; inconclusive = small, poorly fitted or top-dose-only effect, or effect the other way; inactive = flat fitted curve, though single readings scatter. Potencies beside an inconclusive call are fits to weak or partial responses and may not hold up.
# Experiment: Nrf2 qHTS screen for inhibitors; also: nearly all actives have a fitted effect of over 60% in size
# Details: A549 ARE-Fluc reporter, luciferase luminescence, 18-24 h; series mostly up to 46 µM
# How it was run: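 Concentration-response testing used A549 ARE_Fluc cells at 5000 cells/well. Following an 18-24 h compound incubation, viability was read by fluorescence (Ex 405/Em 525) and luciferase output by luminescence.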
# Potency is read from the fitted curve at half-maximal effect.
row,Compound,Potency
1,O=C(CN(c1ccc(Cl)cc1)S(=O)(=O)c1ccc(Cl)c([N+](=O)[O-])c1)NCCc1ccccc1,"inconclusive: 29.1 µM [falling, single point]"
2,Cc1cccc(NC(=S)N2CCCCCC2)c1,"inconclusive: 29.1 µM [activator, single point]"
3,c1ccc(-c2cc3c(NCC4COc5ccccc5O4)ncnc3s2)cc1 (stereo not drawn),"inconclusive: 18.4 µM [falling, partial curve, poor fit]"
4,CC(=O)Nc1cccc(NC(=O)CSc2ccc(-c3sc(-c4ccccc4)nc3C)nn2)c1,"inconclusive: 3.66 µM [activator, partial curve, poor fit]"
5,Fc1cc(Br)ccc1Nc1nc2ccccc2n2nnnc12,"inconclusive: 8.2 µM [falling, partial curve, poor fit]"
6,O=C1c2ccccc2C(=O)N1CCN1CCc2ccccc21,"inconclusive: 20.6 µM [activator, partial curve]"
7,Cc1cccc(Nc2nnc(-c3ccc(C)c(S(=O)(=O)N4CCN(C)CC4)c3)c3ccccc23)c1,"inconclusive: 14.6 µM [falling, partial curve, poor fit]"
8,Cc1ccc(Cl)cc1NC(=O)Cn1c(=O)n(C(C)C)c(=O)c2oc3ccccc3c21,inactive
9,Nc1cc(Nc2ccccc2)c2nonc2c1[N+](=O)[O-],"inconclusive: 18.4 µM [falling, single point]"
10,COC(=O)c1ccc(-c2ccc([C@H]3[C@H]4C=CC[C@@H](C)[C@@H]4C(=O)N3Cc3ccccc3)c(F)c2)cc1,active: 23.1 µM
11,CC(C)CSC1=NSC2=NC(=O)/C(=C\c3coc4ccccc4c3=O)C(=N)N12,"inconclusive: 20.6 µM [activator, partial curve]"
12,CCn1c(SCC(=O)N(C(C)C)C(C)C)nnc1-c1cc2ccccc2cc1O,inactive
13,CC(=O)OCC(=O)C1(O)CCC2C3CCC4=CC(=O)C=CC4(C)C3C(=O)CC21C (stereo not drawn),"inconclusive: 0.461 µM [falling, full curve]"
14,Cc1csc(SCC(=O)Nc2sccc2C(N)=O)n1,inactive
15,Cc1ccnc(Nc2nc(-c3ccc(O)c(O)c3)cs2)c1,"inconclusive: 25.9 µM [activator, single point]"
16,O=C(CN1CCN(C(c2ccccc2)c2ccccc2)CC1)NC(=O)NCc1ccco1,inactive
17,CCOC(=O)c1cccc(NC(=O)N2CC=C(c3c[nH]c4ccccc34)CC2)c1,"inconclusive: 16.4 µM [falling, partial curve, poor fit]"
18,COc1ccccc1N1CCN(Cc2nc(N)nc(Nc3ccc(C)c(Cl)c3)n2)CC1,"inconclusive: 14.6 µM [falling, single point]"

# 5 of the compounds above, tab-delimited.
row	Compound	Potency
8	Cc1ccc(Cl)cc1NC(=O)Cn1c(=O)n(C(C)C)c(=O)c2oc3ccccc3c21	inactive
9	Nc1cc(Nc2ccccc2)c2nonc2c1[N+](=O)[O-]	inconclusive: 18.4 µM [falling, single point]
13	CC(=O)OCC(=O)C1(O)CCC2C3CCC4=CC(=O)C=CC4(C)C3C(=O)CC21C (stereo not drawn)	inconclusive: 0.461 µM [falling, full curve]
16	O=C(CN1CCN(C(c2ccccc2)c2ccccc2)CC1)NC(=O)NCc1ccco1	inactive
17	CCOC(=O)c1cccc(NC(=O)N2CC=C(c3c[nH]c4ccccc34)CC2)c1	inconclusive: 16.4 µM [falling, partial curve, poor fit]
